From patent US20170349638A1, “COMPANION DIAGNOSTIC TOOL FOR PEPTIDOMIMETIC MACROCYCLES” (AILERON Therapeutics, Inc., priority 2016, published 2017)
Not every detail of the peptide structures is certain; ends, links or a residue may be inferred.

Test system: MCF-7 breast cancer xenograft
Test: MCF-7 breast cancer xenograft study
Type: in vivo, female nude (Crl:NU-Foxn1nu) mice
Conditions: 30 mg/kg 3x/wk iv, vs vehicle group
Procedure: A negative control stapled peptide. […] Slow release 90 day 0.72 mg 17β-estradiol pellets (Innovative Research, Sarasota, Fla.) were implanted subcutaneously (sc) on the nape of the neck one day prior to tumor cell implantation (Day −1). On Day 0, MCF-7 tumor cells were implanted sc in the flank of female nude (Crl:NU-Foxn1nu) mice. On Day 18, the resultant sc tumors were measured using calipers to determine their length and width and the mice were weighed. The tumor sizes were calculated using the formula (length×width^2)/2 and expressed as cubic millimeters (mm^3). Mice with tumors smaller than 85.3 mm^3 or larger than 417.4 mm^3 were excluded from the subsequent group formation. Thirteen groups of mice, 10 mice per group, were formed by randomization such that the group mean tumor sizes were essentially equivalent (mean of groups±standard deviation of groups=180.7±17.5 mm^3).
This formulation was prepared once for the duration of the study. This vehicle was used as the vehicle control in the subsequent study.
Each group was assigned to a different treatment regimen. Group 1, as the vehicle negative control group, received the vehicle administered at 8 mL/kg body weight intravenously (iv) three times per week from Days 18-39. […] Group 4 received 6.7 mg/kg SP249 as an iv injection three times per week. […]
During the dosing period the mice were weighed and tumors measured 1-2 times per week.

Row | Structure (SMILES) | % TGI
1 | CC(=O)N[C@@H](CC(C)C)C(=O)N[C@H](C(=O)N[C@@H](Cc1ccccc1)C(=O)N[C@]1(C)CCCCCCC=CCCC[C@@](C)(C(=O)N[C@@H](CO)C(=O)N[C@@H](C)C(=O)N[C@@H](C)C(N)=O)NC(=O)[C@H](CC2CCC2)NC(=O)[C@H](CCC(N)=O)NC(=O)[C@H](C)NC(=O)[C@H](Cc2c[nH]c3ccccc23)NC(=O)[C@H](Cc2ccc(O)cc2)NC(=O)[C@H](CCC(=O)O)NC1=O)[C@@H](C)O [SP154] | *84%
2 | CC(=O)N[C@@H](CC(C)C)C(=O)N[C@H](C(=O)N[C@@H](C)C(=O)N[C@]1(C)CCCCCCC=CCCC[C@@](C)(C(=O)N[C@@H](CO)C(=O)N[C@@H](C)C(=O)N[C@@H](C)C(N)=O)NC(=O)[C@H](CC2CCC2)NC(=O)[C@H](CCC(N)=O)NC(=O)[C@H](C)NC(=O)[C@H](Cc2c[nH]c3ccccc23)NC(=O)[C@H](Cc2ccc(O)cc2)NC(=O)[C@H](CCC(=O)O)NC1=O)[C@@H](C)O [SP252] | *41%
